Experimental data reported in patent publication US20110237518A1 (ONCOTHERAPY SCIENCE, published 2011).
Results are given in words; binding and its absence hold for the method and conditions named. For some of these results: In cells and extracts the contact can be indirect. Some results given as binding are weak or reduced against the parent protein; the word gives no strength.

Chains of the proteins cited; added tags and fusions are not shown. Lines headed by an entry give the natural chain unless they say otherwise; changes in a name come on top.
UniProt Q9NZL3: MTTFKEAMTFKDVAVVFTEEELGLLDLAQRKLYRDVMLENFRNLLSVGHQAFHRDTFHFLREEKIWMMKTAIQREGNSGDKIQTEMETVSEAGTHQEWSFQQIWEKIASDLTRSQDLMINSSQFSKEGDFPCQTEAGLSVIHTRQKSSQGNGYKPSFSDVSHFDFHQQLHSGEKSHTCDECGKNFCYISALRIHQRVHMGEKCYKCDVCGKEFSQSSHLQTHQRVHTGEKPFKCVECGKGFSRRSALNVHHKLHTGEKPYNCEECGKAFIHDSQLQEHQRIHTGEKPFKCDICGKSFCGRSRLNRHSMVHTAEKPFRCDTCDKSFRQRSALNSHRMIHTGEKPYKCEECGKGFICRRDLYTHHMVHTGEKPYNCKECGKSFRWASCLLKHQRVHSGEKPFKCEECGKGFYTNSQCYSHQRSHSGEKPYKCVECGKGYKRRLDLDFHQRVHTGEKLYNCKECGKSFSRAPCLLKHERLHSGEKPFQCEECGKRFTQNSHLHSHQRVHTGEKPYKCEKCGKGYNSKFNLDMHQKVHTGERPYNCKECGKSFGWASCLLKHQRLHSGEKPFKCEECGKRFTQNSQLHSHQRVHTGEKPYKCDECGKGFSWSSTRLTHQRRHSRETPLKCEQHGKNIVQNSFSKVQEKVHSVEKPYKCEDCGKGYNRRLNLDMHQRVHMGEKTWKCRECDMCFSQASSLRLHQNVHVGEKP

How the values were obtained:
[1] = target: FLAG-tagged ZNF224 (ZNF224-FLAG), pCAGGSc-ZNF224-FLAG (human) (UniProt Q9NZL3); assay: IP with anti-DEPDC1 polyclonal antibody, blot with anti-FLAGM2
[2] = target: FLAG-tagged ZNF224 (ZNF224-FLAG), pCAGGSc-ZNF224-FLAG (human) (UniProt Q9NZL3); assay: co-IP with anti-FLAG antibody from transfected UM-UC-3 cells, blot with rabbit anti-DEPDC1 (FIG. 1B)
[3] = target: endogenous zinc finger protein 224 (ZNF224) in UM-UC-3 bladder cancer cells (human) (UniProt Q9NZL3); assay: immunoprecipitation of UM-UC-3 extracts with anti-DEPDC1 antibody, silver stain, MALDI-TOF
[4] = target: FLAG-tagged ZNF224 (ZNF224-FLAG), pCAGGSc-ZNF224-FLAG (human) (UniProt Q9NZL3); assay: immunoprecipitation (FIG. 1B)

binding [1]: binds | binding [2]: binds | binding [3]: binds | binding [4]: binds
B1: endogenous DEPDC1 (DEP domain containing 1) in UM-UC-3 bladder cancer cells (protein)
chain: MESQGVPPGPYRATKLWNEVTTSFRAGMPLRKHRQHFKKYGNCFTAGEAVDWLYDLLRNNSNFGPEVTRQQTIQLLRKFLKNHVIEDIKGRWGSENVDDNNQLFRFPATSPLKTLPRRYPELRKNNIENFSKDKDSIFKLRNLSRRTPKRHGLHLSQENGEKIKHEIINEDQENAIDNRELSQEDVEEVWRYVILIYLQTILGVPSLEEVINPKQVIPQYIMYNMANTSKRGVVILQNKSDDLPHWVLSAMKCLANWPRSNDMNNPTYVGFERDVFRTIADYFLDLPEPLLTFEYYELFVNILVVCGYITVSDRSSGIHKIQDDPQSSKFLHLNNLNSFKSTECLLLSLLHREKNKEESDSTERLQISNPGFQERCAKKMQLVNLRNRRVSANDIMGGSCHNLIGLSNMHDLSSNSKPRCCSLEGIVDVPGNSSKEASSVFHQSFPNIEGQNNKLFLESKPKQEFLLNLHSEENIQKPFSAGFKRTSTLTVQDQEELCNGKCKSKQLCRSQSLLLRSSTRRNSYINTPVAEIIMKPNVGQGSTSVQTAMESELGESSATINKRLCKSTIELSENSLLPASSMLTGTQSLLQPHLERVAIDALQLCCLLLPPPNRRKLQLLMRMISRMSQNVDMPKLHDAMGTRSLMIHTFSRCVLCCAEEVDLDELLAGRLVSFLMDHHQEILQVPSYLQTAVEKHLDYLKKGHIENPGDGLFAPLPTYSYCKQISAQEFDEQKVSTSQAAIAELLENIIKNRSLPLKEKRKKLKQFQKEYPLIYQKRFPTTESEAALFGDKPTIKQPMLILRKPKFRSLR
